According to the supplement of paper PMC10849652:
Some of the results follow. Residues, ends and D or L forms follow the SMILES beside them. *: point of attachment. Cbz = O=C(OCc1ccccc1)*

Protein sequences, listed by entry. Tags and fused reporters are not part of them. Lines headed by an entry give the natural chain unless they say otherwise; changes in a name come on top.
UniProt Q00653: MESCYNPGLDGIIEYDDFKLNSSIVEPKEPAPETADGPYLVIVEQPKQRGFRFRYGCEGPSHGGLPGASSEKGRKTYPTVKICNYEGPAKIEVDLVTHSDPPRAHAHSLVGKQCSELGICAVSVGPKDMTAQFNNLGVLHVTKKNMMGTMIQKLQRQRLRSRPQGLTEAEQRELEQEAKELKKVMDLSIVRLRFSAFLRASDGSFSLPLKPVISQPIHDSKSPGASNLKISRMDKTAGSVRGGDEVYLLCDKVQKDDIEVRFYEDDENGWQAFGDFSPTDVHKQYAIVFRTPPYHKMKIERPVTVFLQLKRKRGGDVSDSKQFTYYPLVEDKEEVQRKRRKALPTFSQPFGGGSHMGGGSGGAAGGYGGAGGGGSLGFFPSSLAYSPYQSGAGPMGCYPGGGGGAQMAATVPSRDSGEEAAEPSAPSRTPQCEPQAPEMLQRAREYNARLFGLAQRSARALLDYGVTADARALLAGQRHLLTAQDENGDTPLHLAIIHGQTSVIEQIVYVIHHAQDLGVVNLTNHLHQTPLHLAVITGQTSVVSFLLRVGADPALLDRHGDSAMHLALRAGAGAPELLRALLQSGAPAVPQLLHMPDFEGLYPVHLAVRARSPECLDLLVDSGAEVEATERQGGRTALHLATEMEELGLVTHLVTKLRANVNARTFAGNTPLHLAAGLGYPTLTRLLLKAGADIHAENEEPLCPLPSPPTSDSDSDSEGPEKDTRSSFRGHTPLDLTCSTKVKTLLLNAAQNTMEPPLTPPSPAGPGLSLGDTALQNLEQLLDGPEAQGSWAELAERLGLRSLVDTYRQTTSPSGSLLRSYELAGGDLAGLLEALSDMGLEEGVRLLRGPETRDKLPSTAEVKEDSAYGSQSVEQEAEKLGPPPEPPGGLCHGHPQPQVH
UniProt Q9H3P2, whole entry, looked up: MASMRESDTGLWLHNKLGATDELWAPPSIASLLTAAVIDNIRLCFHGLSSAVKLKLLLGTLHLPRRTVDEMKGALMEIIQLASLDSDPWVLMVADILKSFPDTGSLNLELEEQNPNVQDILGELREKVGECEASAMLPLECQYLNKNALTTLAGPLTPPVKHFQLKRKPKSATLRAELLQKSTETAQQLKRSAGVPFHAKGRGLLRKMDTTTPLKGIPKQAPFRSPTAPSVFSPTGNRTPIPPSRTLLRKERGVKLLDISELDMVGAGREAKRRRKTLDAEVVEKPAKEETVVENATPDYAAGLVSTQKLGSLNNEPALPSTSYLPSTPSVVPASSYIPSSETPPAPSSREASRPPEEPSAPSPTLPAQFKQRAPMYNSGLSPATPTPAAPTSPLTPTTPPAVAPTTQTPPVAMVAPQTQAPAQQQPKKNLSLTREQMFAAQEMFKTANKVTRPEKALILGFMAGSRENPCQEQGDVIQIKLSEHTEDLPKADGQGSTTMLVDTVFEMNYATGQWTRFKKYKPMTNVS
UniProt Q12968: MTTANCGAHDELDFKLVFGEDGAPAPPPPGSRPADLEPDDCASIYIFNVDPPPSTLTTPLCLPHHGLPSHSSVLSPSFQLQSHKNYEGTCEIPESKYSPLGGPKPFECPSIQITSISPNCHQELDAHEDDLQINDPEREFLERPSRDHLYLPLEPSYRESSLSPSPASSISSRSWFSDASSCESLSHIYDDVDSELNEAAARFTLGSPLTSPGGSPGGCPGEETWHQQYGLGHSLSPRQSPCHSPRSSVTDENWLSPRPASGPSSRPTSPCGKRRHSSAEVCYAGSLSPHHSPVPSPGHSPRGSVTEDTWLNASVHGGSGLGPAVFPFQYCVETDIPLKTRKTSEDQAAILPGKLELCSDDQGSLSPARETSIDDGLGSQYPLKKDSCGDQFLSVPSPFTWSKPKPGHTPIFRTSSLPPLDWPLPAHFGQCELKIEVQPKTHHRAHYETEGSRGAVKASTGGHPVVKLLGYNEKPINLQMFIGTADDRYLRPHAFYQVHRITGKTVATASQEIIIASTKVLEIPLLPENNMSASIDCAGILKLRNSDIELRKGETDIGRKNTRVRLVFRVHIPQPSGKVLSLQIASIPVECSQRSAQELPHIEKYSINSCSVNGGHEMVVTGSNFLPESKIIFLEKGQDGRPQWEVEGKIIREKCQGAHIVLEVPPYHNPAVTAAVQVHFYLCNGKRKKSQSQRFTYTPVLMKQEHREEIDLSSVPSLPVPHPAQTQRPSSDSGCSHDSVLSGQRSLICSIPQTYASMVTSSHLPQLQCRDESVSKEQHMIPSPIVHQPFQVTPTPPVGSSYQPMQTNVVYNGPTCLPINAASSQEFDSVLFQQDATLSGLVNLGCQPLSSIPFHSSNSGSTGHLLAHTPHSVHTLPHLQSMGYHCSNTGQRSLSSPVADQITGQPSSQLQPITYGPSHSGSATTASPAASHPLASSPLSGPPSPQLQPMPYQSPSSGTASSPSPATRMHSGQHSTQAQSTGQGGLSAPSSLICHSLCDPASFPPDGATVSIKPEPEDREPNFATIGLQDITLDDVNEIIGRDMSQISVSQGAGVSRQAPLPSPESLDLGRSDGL
UniProt Q8WX92, whole entry, looked up: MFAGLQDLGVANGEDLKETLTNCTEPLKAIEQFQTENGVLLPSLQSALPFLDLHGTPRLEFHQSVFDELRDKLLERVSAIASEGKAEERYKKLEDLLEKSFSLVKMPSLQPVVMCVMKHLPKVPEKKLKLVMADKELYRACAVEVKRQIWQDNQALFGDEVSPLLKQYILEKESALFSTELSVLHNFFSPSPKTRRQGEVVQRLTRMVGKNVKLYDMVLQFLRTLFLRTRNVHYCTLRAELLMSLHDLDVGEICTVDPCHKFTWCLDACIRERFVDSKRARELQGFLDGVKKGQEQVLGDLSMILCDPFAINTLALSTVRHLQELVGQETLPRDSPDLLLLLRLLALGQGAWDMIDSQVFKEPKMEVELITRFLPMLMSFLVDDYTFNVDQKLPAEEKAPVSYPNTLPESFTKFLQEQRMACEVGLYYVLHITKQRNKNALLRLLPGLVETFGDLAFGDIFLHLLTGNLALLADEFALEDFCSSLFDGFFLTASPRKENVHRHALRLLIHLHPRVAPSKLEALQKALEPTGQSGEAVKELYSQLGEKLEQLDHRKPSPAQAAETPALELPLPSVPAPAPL
UniProt P30419: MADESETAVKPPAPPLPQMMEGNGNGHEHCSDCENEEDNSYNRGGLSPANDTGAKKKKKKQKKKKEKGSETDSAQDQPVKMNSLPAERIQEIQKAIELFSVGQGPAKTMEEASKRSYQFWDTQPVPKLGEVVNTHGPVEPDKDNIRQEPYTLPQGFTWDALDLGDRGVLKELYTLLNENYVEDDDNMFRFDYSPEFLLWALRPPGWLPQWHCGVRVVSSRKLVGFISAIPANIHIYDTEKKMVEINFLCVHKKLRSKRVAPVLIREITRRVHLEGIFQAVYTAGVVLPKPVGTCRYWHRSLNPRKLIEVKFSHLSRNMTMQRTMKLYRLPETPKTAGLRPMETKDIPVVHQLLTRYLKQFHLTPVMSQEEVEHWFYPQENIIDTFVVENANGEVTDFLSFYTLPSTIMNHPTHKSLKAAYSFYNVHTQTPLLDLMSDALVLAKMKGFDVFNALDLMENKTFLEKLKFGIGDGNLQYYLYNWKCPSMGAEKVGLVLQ
UniProt P25208: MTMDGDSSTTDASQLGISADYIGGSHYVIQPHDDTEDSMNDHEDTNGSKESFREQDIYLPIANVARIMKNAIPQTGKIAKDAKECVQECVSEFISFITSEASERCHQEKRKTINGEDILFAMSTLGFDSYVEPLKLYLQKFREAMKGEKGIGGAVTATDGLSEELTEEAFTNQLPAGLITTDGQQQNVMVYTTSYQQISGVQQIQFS
UniProt P55786: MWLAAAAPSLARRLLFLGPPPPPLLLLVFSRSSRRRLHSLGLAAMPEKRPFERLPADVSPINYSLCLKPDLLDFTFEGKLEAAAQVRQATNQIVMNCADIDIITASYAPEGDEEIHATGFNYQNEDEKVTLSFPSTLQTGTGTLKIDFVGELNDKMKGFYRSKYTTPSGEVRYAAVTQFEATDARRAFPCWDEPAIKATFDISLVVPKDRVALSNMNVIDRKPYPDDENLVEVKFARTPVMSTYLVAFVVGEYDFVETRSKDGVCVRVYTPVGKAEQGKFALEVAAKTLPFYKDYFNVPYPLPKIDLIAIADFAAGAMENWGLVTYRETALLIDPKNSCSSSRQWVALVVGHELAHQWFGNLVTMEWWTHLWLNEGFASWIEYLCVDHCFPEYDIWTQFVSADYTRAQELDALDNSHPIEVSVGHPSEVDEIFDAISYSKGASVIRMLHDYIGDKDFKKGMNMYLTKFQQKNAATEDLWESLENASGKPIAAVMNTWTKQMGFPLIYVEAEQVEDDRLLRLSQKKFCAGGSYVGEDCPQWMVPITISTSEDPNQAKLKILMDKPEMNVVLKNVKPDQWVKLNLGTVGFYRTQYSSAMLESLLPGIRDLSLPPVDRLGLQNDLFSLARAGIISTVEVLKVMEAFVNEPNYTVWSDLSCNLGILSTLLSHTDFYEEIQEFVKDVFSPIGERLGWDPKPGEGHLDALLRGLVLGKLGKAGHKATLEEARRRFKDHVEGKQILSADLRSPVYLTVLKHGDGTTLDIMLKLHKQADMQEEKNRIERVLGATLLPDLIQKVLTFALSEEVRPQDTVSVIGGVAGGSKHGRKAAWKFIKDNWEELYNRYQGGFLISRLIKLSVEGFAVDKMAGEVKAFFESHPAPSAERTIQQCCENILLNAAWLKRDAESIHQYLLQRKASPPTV
UniProt O43847: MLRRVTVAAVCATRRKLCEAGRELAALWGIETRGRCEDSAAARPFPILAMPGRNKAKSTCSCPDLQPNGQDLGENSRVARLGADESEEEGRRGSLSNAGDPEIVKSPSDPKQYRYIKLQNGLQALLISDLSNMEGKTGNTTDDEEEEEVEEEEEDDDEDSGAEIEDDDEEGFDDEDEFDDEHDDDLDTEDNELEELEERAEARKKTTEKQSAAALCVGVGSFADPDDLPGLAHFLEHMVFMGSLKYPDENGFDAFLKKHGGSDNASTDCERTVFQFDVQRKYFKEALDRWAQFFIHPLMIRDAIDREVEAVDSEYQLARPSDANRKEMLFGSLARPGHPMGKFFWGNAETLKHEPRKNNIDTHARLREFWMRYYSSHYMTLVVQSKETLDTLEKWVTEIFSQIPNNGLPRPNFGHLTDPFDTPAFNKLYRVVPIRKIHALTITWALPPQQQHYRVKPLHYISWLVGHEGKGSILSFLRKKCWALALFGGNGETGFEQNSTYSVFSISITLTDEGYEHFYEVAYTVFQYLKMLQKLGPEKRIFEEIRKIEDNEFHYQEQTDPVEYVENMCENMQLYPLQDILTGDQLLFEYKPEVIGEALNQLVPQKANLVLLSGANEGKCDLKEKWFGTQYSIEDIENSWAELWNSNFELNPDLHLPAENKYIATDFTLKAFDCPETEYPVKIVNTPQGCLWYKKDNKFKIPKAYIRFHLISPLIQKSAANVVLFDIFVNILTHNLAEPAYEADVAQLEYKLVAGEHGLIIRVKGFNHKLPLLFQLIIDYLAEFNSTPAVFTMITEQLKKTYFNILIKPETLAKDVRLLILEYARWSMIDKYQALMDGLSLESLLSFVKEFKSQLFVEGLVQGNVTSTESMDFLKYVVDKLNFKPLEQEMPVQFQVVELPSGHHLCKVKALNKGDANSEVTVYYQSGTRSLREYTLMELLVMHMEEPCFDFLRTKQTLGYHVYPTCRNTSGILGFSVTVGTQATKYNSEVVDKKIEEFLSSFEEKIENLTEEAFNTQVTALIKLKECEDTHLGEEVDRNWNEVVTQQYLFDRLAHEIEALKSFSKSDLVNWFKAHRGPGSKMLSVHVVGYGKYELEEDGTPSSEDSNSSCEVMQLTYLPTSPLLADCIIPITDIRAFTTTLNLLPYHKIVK
UniProt Q14978: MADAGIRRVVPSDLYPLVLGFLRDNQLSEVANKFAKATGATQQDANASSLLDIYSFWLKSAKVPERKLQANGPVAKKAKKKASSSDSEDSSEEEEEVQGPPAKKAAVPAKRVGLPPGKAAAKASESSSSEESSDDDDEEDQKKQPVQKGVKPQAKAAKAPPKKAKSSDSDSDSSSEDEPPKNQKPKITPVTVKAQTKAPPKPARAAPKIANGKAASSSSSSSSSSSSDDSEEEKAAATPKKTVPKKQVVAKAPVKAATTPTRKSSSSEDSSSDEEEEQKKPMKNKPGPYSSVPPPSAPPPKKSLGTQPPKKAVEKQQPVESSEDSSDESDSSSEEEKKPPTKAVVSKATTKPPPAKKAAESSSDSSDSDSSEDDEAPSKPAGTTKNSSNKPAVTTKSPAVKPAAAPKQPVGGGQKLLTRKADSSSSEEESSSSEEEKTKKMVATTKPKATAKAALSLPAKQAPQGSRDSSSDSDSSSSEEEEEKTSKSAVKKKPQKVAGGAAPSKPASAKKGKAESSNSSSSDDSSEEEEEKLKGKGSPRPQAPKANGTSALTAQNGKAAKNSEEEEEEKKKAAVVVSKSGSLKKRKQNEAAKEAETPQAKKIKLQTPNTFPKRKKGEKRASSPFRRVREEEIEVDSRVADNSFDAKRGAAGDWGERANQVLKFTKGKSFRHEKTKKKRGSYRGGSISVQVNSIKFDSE

What was measured:
Test in all cases: log2 fold change, soluble protein after heating vs DMSO (PISA); higher = thermal stabilisation; K562 cells, 10 uM, 30 min; active = over 0.2 and 3.5 SD of the protein, either way, in both replicates (recomputed)
IRAK-1-4 Inhibitor I = compound: C1COCCN1CCN2C3=CC=CC=C3N=C2NC(=O)C4=CC(=CC=C4)[N+](=O)[O-] [IRAK-1-4 Inhibitor I]
How it was run: (§1)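 Aliquots of K562 cells (2×10^6 cells/mL) treated with 10 μM compound for 30 min were heated for 3 min over 48°C-58°C. After pooling and extraction in PBS with 0.5% NP-40 at 4°C, soluble protein from a 21,000xg, 90 min spin was quantified by TMTpro 16plex LC-MS/MS with channel sums equalised. Thermal stability is expressed against control samples, from duplicates, as a log2 fold change.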

ibrutinib = compound: C=CC(=O)N1CCC[C@@H](n2nc(-c3ccc(Oc4ccccc4)cc3)c3c(N)ncnc32)C1 [ibrutinib]
How it was run: as §1

[1] = compound: CC(=O)c1cnc2ccc(-c3cc(Cl)c(O)c(Cl)c3)nc2c1N[C@H]1CC[C@H](CN(C)C)CC1
How it was run: as §1

[2] = compound: CC(C)(O)CC(=O)NCCn1ccc2ncnc(Nc3ccc(Oc4cccc(C(F)(F)F)c4)c(Cl)c3)c21
How it was run: as §1

[3] = compound: CC(C)C1=C2N=C(C=C(N2N=C1)NCC3=CC=CC=C3)NCCCCCCN
How it was run: as §1

pinometostat = compound: CC(C)N(C[C@H]1O[C@@H](n2cnc3c(N)ncnc32)[C@H](O)[C@@H]1O)[C@H]1C[C@@H](CCc2nc3cc(C(C)(C)C)ccc3[nH]2)C1 [pinometostat]
How it was run: as §1

[4] = compound: CC1=C(C2=C(C=C1)C(=O)C3=CC=CC=C3N2CCCN)C
How it was run: as §1

ralimetinib = compound: CC(C)(C)Cn1c(N)nc2ccc(-c3[nH]c(C(C)(C)C)nc3-c3ccc(F)cc3)nc21 [ralimetinib]
How it was run: as §1

[5] = compound: CC(C)C[C@@H](C=O)NC(=O)[C@H](CC(C)C)NC(=O)[C@H](CC(C)C)NC(=O)OCc1ccccc1
How it was run: as §1

[6] = compound: CC1=C(C(CC(=O)N1)C2=CC=C(C=C2)C(F)(F)F)C(=O)NC3=C(C=C4C(=C3)C=NN4)F
How it was run: as §1

Measured: log2 fold change

NNMT (UniProt P40261)
inactive: IRAK-1-4 Inhibitor I 0.035 | ibrutinib 0.06 | [1] -0.028 | [2] -0.026 | [3] -0.026 | [4] -0.006
active: pinometostat 0.276

NFYC (UniProt Q13952)
active: [4] 0.332
inactive: IRAK-1-4 Inhibitor I -0.023 | ibrutinib -0.042 | [1] -0.023 | ralimetinib -0.09 | [2] -0.046 | [3] 0.019 | [5] -0.061 | pinometostat -0.087

NOP56 (UniProt O00567)
inactive: IRAK-1-4 Inhibitor I -0.03 | ibrutinib 0.025 | [1] 0.015 | ralimetinib 0.082 | [2] 0.108 | [3] 0.202 | [5] 0.234 | pinometostat 0.198 | [4] 0.187

NPC1L1 (UniProt Q9UHC9)
inactive: IRAK-1-4 Inhibitor I 0.014 | ibrutinib 0.047 | [1] -0.008 | pinometostat -0.136 | [4] 0.085

NFATC2IP (UniProt Q8NCF5)
inactive: IRAK-1-4 Inhibitor I -0.014 | ibrutinib -0.036 | [1] -0.051 | ralimetinib -0.003 | [2] -0.224 | [3] -0.161 | [5] -0.006 | pinometostat -0.032 | [4] -0.022

NOL6 (UniProt Q9H6R4)
inactive: IRAK-1-4 Inhibitor I -0.057 | ibrutinib 0.001 | [1] -0.05 | ralimetinib 0.135 | [2] -0.031 | [5] 0.154 | pinometostat 0.064 | [4] -0.349

NELFCD (UniProt Q8IXH7)
inactive: IRAK-1-4 Inhibitor I -0.038 | ibrutinib -0.18 | [1] -0.04 | [2] -0.394 | [3] 0.101 | pinometostat 0.017

NIPA1 (UniProt Q7RTP0)
inactive: IRAK-1-4 Inhibitor I 0.109 | ibrutinib 0.084 | [1] -0.04 | ralimetinib -0.03 | [3] 0.021 | [5] -0.102 | pinometostat -0.156 | [6] 0.044 | [4] -0.045

NOC2L (UniProt Q9Y3T9)
inactive: IRAK-1-4 Inhibitor I -0.017 | ibrutinib -0.045 | [1] -0.173 | [2] -0.105 | [3] -0.151 | pinometostat 0.063 | [6] -0.156 | [4] -0.157

NMD3 (UniProt Q96D46)
active: [4] -0.392
inactive: IRAK-1-4 Inhibitor I 0.001 | ibrutinib -0.046 | [1] 0.017 | ralimetinib -0.049 | [2] -0.104 | [3] -0.069 | [5] -0.141 | pinometostat -0.026

NFKB2 (UniProt Q00653)
inactive: IRAK-1-4 Inhibitor I -0.206 | ibrutinib 0 | [1] 0.022 | ralimetinib 0.151 | [2] 0.041 | [5] 0.129 | pinometostat 0.104 | [6] 0.071 | [4] 0.139

NELFA (UniProt Q9H3P2)
inactive: IRAK-1-4 Inhibitor I -0.065 | ibrutinib 0 | [1] -0.357 | ralimetinib 0.02 | [2] -0.286 | [3] -0.054 | [5] -0.043 | pinometostat -0.02 | [4] 0.252

NPC1 (UniProt O15118)
inactive: IRAK-1-4 Inhibitor I 0.014 | ibrutinib 0.03 | [1] 0.031 | ralimetinib -0.041 | [2] 0.028 | [3] -0.184 | [5] 0.006 | pinometostat -0.055 | [4] -0.147

NPM3 (UniProt O75607)
active: [4] -0.521
inactive: IRAK-1-4 Inhibitor I -0.057 | ibrutinib -0.016 | [1] -0.004 | ralimetinib 0.045 | [3] 0.078 | [5] 0.053 | pinometostat 0.052

2 entries picked at random from those above, as already listed:
NIPA1 (UniProt Q7RTP0)
inactive: IRAK-1-4 Inhibitor I 0.109 | ibrutinib 0.084 | [1] -0.04 | ralimetinib -0.03 | [3] 0.021 | [5] -0.102 | pinometostat -0.156 | [6] 0.044 | [4] -0.045

NOL6 (UniProt Q9H6R4)
inactive: IRAK-1-4 Inhibitor I -0.057 | ibrutinib 0.001 | [1] -0.05 | ralimetinib 0.135 | [2] -0.031 | [5] 0.154 | pinometostat 0.064 | [4] -0.349

More entries:

NMRAL1 (UniProt Q9HBL8)
inactive: IRAK-1-4 Inhibitor I 0.058 | [1] 0.467 | ralimetinib -0.016 | [2] -0.121 | [3] 0 | [5] -0.007 | pinometostat 0 | [4] 0.281
active: ibrutinib 0.874

NIPSNAP3B (UniProt Q9BS92)
inactive: IRAK-1-4 Inhibitor I 0.048 | ibrutinib 0.082 | [1] 0.026 | [3] 0.045 | pinometostat 0.056 | [4] 0.049

NFATC3 (UniProt Q12968)
active: [1] -0.406 | ralimetinib 0.386
inactive: IRAK-1-4 Inhibitor I -0.116 | ibrutinib 0.01 | [2] -0.105 | [3] -0.209 | [5] 0.145 | pinometostat 0.053 | [4] -0.036

NFATC4 isoform 2 (UniProt Q14934)
inactive: IRAK-1-4 Inhibitor I -0.061 | ibrutinib -0.033 | [1] -0.059 | ralimetinib -0.18 | [2] -0.104 | [5] -0.238 | pinometostat 0.065 | [4] 0.082

NKAP (UniProt Q8N5F7)
inactive: IRAK-1-4 Inhibitor I 0 | ibrutinib 0.004 | [1] -0.218 | ralimetinib 0.033 | [2] 0.105 | [3] -0.123 | [5] 0.103 | pinometostat 0.032 | [4] -0.022

NELFB isoform 2 (UniProt Q8WX92)
inactive: IRAK-1-4 Inhibitor I -0.03 | ibrutinib -0.045 | [1] -0.144 | ralimetinib -0.067 | [2] -0.154 | [3] -0.112 | [5] 0.001 | pinometostat 0.022 | [4] 0.042

NFAT5 isoform 5 (UniProt O94916)
inactive: IRAK-1-4 Inhibitor I -0.06 | ibrutinib 0.037 | [1] 0.073 | [2] 0.044 | [3] -0.052 | pinometostat 0.045 | [6] -0.039 | [4] -0.152

NFATC2 (UniProt Q13469)
inactive: IRAK-1-4 Inhibitor I -0.075 | ibrutinib -0.008 | ralimetinib -0.001 | [2] 0.011 | [3] -0.055 | [5] 0.099 | pinometostat 0.102 | [4] -0.033
active: [1] -0.635

NMT1 (UniProt P30419)
inactive: IRAK-1-4 Inhibitor I 0.023 | ibrutinib 0.028 | [1] 0.017 | ralimetinib 0.017 | [2] -0.047 | [3] -0.053 | [5] 0.008 | pinometostat 0.037 | [4] -0.051

NFYB (UniProt P25208)
active: [4] 0.411
inactive: IRAK-1-4 Inhibitor I 0.07 | ibrutinib -0.051 | [1] 0.019 | ralimetinib 0.016 | [3] 0.054 | [5] -0.007 | pinometostat -0.043

NQO1 (UniProt P15559)
inactive: IRAK-1-4 Inhibitor I 0.001 | ibrutinib -0.053 | [1] 0.044 | ralimetinib 0.001 | [2] -0.029 | [3] -0.035 | [5] -0.045 | pinometostat -0.02 | [4] -0.01

NPEPPS (UniProt P55786)
inactive: IRAK-1-4 Inhibitor I 0.039 | ibrutinib 0 | [1] -0.013 | ralimetinib 0.021 | [2] -0.117 | [5] -0.035 | pinometostat -0.026 | [4] 0.045
active: [3] 0.254

NRDC isoform 2 (UniProt O43847)
inactive: IRAK-1-4 Inhibitor I 0.003 | ibrutinib -0.033 | [1] -0.026 | ralimetinib 0.011 | [2] -0.04 | [3] 0.053 | [5] 0.029 | pinometostat 0.015 | [4] 0.037

NFE2 (UniProt Q16621)
inactive: IRAK-1-4 Inhibitor I 0.053 | ibrutinib -0.039 | [1] 0.016 | ralimetinib -0.06 | [2] 0.01 | [3] -0.119 | [5] 0.184 | pinometostat -0.001
active: [4] -0.285

NOLC1 isoform 3 (UniProt Q14978)
inactive: [3] 0.151

NOD1 (UniProt Q9Y239)
inactive: IRAK-1-4 Inhibitor I -0.039 | ibrutinib -0.042 | ralimetinib -0.071 | [2] 0.011 | [5] 0.024 | pinometostat -0.116

NKIRAS2 (UniProt Q9NYR9)
inactive: IRAK-1-4 Inhibitor I 0.051 | [2] 0 | [3] 0.055 | pinometostat 0.099 | [6] 0.128 | [4] -0.032
